According to the supplement of paper PMC12067093, “Discovery and optimisation of a covalent ligand for TRIM25 and its application to targeted protein ubiquitination” (Chemical Science, 2025):
Some of the results follow.

The chains behind the UniProt entries cited, without tags or fusion partners. Where a name states a change or a piece, a line headed by the entry shows the natural chain unless it says otherwise.
UniProt Q92556, whole entry, looked up: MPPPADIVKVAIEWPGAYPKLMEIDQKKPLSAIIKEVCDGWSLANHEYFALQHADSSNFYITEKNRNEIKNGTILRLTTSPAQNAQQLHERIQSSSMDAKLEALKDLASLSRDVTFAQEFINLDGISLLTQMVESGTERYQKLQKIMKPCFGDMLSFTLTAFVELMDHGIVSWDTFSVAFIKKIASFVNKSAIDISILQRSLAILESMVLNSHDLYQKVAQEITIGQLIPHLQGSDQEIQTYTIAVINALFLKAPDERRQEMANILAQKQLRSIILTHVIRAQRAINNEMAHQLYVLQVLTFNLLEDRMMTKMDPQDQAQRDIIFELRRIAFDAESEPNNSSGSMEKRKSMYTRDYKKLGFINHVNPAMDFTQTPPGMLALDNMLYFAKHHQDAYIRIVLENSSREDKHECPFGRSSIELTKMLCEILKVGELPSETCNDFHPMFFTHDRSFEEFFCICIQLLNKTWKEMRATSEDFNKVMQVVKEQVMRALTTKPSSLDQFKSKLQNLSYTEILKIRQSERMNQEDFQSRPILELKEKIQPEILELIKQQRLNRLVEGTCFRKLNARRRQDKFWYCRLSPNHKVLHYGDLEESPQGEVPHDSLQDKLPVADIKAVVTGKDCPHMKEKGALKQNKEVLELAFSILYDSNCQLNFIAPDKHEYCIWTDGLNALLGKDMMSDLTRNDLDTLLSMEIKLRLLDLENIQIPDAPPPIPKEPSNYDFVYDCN
UniProt O75821, whole entry, looked up: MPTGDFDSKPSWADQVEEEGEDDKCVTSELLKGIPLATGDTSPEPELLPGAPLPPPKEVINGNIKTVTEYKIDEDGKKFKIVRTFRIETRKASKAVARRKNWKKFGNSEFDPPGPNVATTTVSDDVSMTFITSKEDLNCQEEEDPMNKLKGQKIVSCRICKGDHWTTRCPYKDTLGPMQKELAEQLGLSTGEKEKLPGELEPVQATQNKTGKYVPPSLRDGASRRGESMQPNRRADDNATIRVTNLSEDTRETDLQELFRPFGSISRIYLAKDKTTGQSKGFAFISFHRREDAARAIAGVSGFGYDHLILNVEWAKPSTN
UniProt Q09472, whole entry, looked up: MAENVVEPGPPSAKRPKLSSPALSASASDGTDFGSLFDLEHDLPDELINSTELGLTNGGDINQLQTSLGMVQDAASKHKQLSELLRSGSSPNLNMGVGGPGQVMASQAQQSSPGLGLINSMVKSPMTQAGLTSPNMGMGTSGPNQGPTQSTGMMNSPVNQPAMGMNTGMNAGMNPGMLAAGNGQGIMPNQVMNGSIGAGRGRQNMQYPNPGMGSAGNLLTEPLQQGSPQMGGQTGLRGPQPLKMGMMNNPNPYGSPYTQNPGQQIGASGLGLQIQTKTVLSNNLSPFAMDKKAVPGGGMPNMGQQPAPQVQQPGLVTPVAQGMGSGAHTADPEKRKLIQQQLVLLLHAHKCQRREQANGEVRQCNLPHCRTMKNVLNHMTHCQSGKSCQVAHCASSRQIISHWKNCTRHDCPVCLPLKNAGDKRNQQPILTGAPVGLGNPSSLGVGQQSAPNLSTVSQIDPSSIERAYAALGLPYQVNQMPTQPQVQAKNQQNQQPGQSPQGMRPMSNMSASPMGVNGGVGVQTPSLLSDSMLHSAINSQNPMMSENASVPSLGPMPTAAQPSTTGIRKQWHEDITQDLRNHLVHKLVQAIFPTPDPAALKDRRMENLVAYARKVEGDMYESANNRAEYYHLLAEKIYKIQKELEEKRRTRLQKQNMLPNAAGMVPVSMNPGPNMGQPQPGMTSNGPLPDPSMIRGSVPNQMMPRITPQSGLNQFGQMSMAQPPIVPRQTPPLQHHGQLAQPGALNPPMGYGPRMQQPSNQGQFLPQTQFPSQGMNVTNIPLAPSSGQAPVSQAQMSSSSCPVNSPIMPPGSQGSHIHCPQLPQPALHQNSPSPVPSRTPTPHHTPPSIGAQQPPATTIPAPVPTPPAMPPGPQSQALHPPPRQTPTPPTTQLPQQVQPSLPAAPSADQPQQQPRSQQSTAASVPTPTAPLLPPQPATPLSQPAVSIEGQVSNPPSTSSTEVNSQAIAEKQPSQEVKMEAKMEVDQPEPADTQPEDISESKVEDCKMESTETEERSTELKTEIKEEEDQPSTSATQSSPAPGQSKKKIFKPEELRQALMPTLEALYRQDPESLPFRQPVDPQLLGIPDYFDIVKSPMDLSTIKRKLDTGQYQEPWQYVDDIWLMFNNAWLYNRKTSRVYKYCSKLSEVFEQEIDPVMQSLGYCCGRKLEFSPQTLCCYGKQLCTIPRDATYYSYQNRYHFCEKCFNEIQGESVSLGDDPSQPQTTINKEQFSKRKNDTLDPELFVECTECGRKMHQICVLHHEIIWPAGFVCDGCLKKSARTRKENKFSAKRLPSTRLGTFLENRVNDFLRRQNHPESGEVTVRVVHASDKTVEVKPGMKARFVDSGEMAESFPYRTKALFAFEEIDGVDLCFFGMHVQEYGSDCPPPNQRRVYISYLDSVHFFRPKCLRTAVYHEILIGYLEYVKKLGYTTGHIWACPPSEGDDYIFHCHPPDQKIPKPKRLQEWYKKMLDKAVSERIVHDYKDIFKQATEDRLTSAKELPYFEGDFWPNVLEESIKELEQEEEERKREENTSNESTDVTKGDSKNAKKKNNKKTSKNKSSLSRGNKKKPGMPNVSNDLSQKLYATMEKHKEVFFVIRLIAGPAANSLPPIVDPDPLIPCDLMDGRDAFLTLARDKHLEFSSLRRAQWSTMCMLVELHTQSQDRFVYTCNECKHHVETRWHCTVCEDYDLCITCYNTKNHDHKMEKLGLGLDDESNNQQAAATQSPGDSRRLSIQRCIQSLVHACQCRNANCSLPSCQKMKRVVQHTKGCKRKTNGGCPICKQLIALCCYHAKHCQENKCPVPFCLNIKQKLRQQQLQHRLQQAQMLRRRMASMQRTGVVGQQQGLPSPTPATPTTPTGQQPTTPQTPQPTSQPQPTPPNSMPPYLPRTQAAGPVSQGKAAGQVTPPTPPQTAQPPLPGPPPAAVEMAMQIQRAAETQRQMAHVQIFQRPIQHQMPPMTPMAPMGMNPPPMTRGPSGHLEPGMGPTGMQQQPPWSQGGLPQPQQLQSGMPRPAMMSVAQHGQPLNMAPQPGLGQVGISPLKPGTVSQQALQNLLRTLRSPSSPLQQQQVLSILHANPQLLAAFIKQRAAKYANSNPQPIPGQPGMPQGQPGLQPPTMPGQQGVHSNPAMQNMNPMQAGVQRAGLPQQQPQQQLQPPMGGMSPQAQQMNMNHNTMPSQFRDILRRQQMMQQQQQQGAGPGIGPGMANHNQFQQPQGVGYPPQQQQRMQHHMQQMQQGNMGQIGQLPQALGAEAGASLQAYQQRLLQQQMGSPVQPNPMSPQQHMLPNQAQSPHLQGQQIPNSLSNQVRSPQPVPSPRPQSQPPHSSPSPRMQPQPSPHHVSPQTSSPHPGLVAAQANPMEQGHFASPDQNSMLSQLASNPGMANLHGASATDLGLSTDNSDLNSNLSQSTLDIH
UniProt Q32P44: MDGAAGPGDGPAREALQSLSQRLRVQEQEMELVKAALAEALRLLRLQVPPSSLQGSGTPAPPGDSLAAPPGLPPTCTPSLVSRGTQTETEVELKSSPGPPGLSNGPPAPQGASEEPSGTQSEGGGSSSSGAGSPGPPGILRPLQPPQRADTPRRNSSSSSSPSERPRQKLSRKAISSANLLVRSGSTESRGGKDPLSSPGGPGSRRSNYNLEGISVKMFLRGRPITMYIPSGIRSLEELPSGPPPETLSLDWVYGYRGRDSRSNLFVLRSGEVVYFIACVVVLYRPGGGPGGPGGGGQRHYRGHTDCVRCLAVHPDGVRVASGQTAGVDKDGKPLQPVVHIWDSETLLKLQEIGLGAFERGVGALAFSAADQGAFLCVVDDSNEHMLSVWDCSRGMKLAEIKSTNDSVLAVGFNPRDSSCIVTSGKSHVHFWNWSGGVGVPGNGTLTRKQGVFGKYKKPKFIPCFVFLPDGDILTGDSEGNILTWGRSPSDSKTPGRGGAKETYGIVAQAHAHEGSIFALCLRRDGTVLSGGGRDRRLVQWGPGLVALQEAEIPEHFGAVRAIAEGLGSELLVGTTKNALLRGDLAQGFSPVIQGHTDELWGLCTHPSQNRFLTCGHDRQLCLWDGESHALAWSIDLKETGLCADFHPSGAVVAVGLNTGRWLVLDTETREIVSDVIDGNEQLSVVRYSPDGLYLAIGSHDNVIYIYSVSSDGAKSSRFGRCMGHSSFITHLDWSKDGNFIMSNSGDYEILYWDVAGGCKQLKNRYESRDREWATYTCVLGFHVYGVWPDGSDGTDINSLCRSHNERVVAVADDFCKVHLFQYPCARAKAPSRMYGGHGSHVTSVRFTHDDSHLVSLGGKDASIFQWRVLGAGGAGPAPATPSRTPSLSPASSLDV
UniProt O43402: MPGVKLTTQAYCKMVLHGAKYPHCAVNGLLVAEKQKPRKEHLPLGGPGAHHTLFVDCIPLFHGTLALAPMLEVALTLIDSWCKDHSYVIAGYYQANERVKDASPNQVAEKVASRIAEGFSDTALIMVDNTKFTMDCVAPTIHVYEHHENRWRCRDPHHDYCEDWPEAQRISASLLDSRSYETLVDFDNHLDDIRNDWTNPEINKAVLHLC
UniProt P42566: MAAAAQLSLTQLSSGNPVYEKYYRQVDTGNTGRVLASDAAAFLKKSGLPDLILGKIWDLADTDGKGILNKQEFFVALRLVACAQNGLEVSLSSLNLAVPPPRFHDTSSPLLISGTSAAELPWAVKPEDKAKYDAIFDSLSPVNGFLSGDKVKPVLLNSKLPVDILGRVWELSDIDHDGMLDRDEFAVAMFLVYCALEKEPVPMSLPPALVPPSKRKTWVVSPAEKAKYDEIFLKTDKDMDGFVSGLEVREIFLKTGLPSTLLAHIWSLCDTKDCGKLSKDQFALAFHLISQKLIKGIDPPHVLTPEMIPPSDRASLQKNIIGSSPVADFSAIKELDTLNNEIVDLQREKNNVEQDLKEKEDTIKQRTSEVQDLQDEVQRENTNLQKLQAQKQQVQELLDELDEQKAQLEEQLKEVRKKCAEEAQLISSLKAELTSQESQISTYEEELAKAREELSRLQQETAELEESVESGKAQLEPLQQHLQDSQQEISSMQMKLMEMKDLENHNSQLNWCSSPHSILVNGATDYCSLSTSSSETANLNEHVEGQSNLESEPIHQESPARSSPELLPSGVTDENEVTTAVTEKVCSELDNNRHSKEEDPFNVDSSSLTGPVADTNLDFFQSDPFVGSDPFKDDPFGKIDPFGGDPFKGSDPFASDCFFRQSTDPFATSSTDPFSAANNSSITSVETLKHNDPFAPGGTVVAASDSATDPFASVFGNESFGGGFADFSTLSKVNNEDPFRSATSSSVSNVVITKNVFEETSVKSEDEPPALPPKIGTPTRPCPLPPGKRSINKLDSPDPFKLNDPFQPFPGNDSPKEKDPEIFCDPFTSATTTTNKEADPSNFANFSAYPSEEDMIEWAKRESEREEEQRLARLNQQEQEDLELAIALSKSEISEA

Compound: CC1Cc2ccccc2N1C(=O)C1CCCN(C1)C(=O)CCl (mixture of isomers) [TRIM25 ligand 11 (diastereomer mixture)]
Experiment: probe-labelled cysteine peptide fold change vs DMSO (competition) (log2 fold change); higher = less target engagement (more negative = stronger competition)
Settings: THP-1, incubation time: 4 h
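Note: competitive chemoproteomic profiling in live THP-1 cells with an iodoacetamide desthiobiotin (IA-DTB) probe, comparing probe-labelled peptide intensities in compound-treated cells against DMSO-treated controls.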

“ELMO1_Q92556_411_EDKHECPFGR (UniProt Q92556)” was tested, and the “probe-labelled cysteine peptide fold change” value (10 µM) was -0.0619 and the “probe-labelled cysteine peptide fold change” value (50 µM) was -0.114.

With “EIF3G_O75821_139_EDLNCQEEEDPMNK (UniProt O75821)” the “probe-labelled cysteine peptide fold change” value (10 µM) was 0.0196 and the “probe-labelled cysteine peptide fold change” value (50 µM) was -0.165.

With “EP300_Q09472_1247_RKNDTLDPELFVECTECGR (UniProt Q09472)” the “probe-labelled cysteine peptide fold change” value (10 µM) was 0.0495 and the “probe-labelled cysteine peptide fold change” value (50 µM) was -0.131.

For “EPRS_P07814_623_VTWLAETTHALPIPVICVTYEHLITKPVLGKDEDFK (UniProt P07814)”, the “probe-labelled cysteine peptide fold change” value (10 µM) was -0.0188 and the “probe-labelled cysteine peptide fold change” value (50 µM) was 0.0185.

In the case of “EML3_Q32P44_825_VHLFQYPCAR (UniProt Q32P44)”, the “probe-labelled cysteine peptide fold change” value (10 µM) is reported as 0.239 and the “probe-labelled cysteine peptide fold change” value (50 µM) is reported as 0.385.

With “EMC8_O43402_161_CRDPHHDYCEDWPEAQR (UniProt O43402)” the “probe-labelled cysteine peptide fold change” value (10 µM) was 0.044 and the “probe-labelled cysteine peptide fold change” value (50 µM) was 0.143.

“EMC8_O43402_24_YPHCAVNGLLVAEK (UniProt O43402)” was tested, and the “probe-labelled cysteine peptide fold change” value (10 µM) was -0.00157 and the “probe-labelled cysteine peptide fold change” value (50 µM) was -0.0673.

In the case of “EPS15_P42566_82_LVACAQNGLEVSLSSLNLAVPPPR (UniProt P42566)”, the “probe-labelled cysteine peptide fold change” value (10 µM) is reported as 0.123 and the “probe-labelled cysteine peptide fold change” value (50 µM) is reported as -0.00747.
